This is one part of the list.
How the values were obtained:
Experiment in all cases: log2 fold change, soluble protein after heating vs DMSO (PISA); higher = thermal stabilisation; K562 lysate, 10 uM; active = over 0.2 and 3.5 SD of the protein, either way, in both replicates (recomputed)
ibrutinib = compound: C=CC(=O)N1CCC[C@@H](n2nc(-c3ccc(Oc4ccccc4)cc3)c3c(N)ncnc32)C1 [ibrutinib]
Summary of the method: (§1)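 The values are log-two fold changes in thermal stability compared with solvent controls and come from duplicates. They were obtained by TMTpro 16plex LC-MS/MS, with channel sums equalised, on the supernatant after 21,000xg for 90 min. That supernatant came from crude K562 extract at 1 mg/mL protein treated with 10 μM compound for 30 min, heated for 3 min across 48°C-58°C, pooled and brought to 0.5% NP-40 at 4°C.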

Chains of the proteins cited; added tags and fusions are not shown. Lines headed by an entry give the natural chain unless they say otherwise; changes in a name come on top.
UniProt P09493, whole entry, looked up: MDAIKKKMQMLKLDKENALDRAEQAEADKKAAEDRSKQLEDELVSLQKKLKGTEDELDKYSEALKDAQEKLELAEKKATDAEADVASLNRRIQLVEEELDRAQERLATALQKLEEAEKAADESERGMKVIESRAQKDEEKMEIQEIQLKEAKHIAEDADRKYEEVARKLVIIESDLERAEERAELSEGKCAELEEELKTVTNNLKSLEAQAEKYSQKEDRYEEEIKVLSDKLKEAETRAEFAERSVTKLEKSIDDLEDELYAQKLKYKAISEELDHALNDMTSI
UniProt Q9C0C2: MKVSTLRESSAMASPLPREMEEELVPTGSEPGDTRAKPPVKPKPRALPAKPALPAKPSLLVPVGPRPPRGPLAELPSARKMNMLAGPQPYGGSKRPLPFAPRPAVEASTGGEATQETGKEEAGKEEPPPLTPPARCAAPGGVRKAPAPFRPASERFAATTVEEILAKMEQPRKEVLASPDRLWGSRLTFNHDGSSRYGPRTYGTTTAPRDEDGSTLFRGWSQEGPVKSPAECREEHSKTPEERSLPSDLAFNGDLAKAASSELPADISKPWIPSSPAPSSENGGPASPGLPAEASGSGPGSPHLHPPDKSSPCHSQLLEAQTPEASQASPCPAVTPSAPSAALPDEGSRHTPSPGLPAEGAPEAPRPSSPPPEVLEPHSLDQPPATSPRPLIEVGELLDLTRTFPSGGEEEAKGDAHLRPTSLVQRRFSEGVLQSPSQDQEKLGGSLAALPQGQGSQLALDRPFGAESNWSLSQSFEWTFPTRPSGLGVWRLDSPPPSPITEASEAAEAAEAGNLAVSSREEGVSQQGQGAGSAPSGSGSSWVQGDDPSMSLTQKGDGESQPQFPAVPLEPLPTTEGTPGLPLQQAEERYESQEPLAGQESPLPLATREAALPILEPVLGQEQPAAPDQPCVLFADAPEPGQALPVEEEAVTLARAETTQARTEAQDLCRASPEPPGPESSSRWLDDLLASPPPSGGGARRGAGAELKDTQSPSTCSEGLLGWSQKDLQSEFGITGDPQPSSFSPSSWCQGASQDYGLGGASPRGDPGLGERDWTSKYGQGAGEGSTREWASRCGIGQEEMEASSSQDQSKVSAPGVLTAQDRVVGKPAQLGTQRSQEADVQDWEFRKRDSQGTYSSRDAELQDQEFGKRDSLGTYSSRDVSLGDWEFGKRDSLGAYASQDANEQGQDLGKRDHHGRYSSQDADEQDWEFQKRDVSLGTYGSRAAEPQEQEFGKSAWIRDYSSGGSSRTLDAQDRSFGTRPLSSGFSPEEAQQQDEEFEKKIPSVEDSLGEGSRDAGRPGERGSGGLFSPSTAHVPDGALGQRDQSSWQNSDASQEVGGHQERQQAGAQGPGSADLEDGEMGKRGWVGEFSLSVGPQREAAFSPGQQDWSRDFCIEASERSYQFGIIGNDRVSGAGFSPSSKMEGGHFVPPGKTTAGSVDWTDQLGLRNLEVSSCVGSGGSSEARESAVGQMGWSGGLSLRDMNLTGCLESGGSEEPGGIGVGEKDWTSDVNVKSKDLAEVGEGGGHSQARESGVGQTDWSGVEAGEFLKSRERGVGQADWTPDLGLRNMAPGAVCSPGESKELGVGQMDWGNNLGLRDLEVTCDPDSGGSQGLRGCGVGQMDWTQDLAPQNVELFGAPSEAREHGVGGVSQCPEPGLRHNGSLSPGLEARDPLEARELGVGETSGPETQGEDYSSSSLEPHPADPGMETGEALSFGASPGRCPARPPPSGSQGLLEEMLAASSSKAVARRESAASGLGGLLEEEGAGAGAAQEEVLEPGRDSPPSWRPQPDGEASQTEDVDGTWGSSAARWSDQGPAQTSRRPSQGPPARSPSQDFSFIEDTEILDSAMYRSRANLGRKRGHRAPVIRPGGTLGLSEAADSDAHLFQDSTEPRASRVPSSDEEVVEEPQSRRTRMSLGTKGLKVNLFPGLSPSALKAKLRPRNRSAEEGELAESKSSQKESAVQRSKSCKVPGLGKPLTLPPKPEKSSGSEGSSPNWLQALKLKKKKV
UniProt Q9H4I3: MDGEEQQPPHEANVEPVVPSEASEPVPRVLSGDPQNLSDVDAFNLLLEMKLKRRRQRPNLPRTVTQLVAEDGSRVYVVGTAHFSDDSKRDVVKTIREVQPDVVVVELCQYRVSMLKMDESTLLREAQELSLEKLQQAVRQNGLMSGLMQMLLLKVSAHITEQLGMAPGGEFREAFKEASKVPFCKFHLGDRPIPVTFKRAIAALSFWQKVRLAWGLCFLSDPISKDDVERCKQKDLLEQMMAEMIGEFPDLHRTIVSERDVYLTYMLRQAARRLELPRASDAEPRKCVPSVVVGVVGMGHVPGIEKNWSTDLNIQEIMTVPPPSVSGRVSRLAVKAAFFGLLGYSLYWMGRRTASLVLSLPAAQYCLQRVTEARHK
UniProt Q9Y320, whole entry, looked up: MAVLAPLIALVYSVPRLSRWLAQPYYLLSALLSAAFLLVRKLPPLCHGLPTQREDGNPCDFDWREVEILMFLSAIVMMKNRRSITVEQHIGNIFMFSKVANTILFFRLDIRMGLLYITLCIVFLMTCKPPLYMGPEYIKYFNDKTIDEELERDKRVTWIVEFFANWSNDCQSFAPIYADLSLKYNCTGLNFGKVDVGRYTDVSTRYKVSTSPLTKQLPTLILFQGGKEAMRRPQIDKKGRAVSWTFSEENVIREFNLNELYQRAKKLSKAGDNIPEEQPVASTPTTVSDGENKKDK
UniProt Q9ULW0, whole entry, looked up: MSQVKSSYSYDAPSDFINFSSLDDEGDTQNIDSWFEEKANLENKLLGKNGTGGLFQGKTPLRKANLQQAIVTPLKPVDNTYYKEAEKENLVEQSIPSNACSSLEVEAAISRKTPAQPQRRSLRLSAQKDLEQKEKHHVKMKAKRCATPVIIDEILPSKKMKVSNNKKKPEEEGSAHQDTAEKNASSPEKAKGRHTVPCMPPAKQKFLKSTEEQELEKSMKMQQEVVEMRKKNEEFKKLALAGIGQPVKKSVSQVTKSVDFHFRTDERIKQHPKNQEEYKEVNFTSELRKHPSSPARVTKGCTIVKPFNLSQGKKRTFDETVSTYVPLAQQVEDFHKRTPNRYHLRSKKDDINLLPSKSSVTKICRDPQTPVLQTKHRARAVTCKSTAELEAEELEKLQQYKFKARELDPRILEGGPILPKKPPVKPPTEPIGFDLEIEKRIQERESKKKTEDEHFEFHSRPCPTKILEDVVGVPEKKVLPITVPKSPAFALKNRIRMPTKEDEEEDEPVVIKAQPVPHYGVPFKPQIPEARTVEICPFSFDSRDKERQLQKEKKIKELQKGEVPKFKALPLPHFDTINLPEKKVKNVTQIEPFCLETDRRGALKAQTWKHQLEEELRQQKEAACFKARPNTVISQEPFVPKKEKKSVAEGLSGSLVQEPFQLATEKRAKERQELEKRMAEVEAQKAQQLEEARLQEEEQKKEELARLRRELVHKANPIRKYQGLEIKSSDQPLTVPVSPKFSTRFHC
UniProt O75674: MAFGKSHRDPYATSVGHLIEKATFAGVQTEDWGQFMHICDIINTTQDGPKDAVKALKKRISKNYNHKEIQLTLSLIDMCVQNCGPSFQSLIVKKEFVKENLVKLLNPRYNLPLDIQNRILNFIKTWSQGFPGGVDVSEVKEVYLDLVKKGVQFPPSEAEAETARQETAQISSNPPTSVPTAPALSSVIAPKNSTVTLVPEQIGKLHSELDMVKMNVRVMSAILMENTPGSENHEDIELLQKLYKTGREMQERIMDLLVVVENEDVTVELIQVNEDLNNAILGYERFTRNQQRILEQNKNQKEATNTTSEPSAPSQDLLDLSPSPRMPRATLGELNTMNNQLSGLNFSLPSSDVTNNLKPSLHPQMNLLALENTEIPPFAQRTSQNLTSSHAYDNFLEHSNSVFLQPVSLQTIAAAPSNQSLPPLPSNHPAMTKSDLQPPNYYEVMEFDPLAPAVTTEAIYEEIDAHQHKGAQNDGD
UniProt Q03169: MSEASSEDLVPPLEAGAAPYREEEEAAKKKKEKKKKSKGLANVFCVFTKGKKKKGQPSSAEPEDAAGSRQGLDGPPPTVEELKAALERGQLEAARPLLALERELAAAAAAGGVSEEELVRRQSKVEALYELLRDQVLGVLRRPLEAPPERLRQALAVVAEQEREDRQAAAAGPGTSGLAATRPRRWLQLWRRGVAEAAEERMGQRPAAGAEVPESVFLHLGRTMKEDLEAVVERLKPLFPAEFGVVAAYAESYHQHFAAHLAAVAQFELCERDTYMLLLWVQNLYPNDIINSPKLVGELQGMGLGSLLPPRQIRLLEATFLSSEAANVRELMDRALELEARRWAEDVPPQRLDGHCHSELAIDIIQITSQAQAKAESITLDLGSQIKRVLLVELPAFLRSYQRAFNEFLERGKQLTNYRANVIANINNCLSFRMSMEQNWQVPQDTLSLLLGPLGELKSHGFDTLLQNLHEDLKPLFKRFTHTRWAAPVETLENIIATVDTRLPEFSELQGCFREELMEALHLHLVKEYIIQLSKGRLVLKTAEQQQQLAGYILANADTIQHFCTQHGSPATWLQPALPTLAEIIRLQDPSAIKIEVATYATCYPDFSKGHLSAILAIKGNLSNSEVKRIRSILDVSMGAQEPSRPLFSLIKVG
UniProt P67936, whole entry, looked up: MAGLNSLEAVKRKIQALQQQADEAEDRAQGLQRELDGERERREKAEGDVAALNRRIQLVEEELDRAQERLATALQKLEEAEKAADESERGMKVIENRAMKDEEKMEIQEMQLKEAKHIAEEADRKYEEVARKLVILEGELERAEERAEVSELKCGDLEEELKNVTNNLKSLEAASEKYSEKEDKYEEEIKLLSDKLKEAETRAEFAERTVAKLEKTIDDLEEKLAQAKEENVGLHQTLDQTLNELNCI
UniProt Q5JTV8: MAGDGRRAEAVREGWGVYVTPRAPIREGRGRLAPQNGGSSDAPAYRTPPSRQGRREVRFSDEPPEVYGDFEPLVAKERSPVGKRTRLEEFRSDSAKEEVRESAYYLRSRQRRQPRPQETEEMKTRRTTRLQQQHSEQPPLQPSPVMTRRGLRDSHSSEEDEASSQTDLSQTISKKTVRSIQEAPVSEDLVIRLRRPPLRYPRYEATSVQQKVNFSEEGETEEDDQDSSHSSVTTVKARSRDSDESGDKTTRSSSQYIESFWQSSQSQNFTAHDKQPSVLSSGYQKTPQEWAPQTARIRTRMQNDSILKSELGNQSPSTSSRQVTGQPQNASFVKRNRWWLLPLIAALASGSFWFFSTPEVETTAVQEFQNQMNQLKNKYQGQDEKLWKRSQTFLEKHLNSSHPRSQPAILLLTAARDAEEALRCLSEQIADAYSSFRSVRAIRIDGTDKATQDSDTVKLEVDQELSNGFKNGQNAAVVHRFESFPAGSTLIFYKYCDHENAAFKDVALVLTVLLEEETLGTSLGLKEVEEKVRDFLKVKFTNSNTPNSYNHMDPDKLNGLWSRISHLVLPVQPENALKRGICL
UniProt Q13472: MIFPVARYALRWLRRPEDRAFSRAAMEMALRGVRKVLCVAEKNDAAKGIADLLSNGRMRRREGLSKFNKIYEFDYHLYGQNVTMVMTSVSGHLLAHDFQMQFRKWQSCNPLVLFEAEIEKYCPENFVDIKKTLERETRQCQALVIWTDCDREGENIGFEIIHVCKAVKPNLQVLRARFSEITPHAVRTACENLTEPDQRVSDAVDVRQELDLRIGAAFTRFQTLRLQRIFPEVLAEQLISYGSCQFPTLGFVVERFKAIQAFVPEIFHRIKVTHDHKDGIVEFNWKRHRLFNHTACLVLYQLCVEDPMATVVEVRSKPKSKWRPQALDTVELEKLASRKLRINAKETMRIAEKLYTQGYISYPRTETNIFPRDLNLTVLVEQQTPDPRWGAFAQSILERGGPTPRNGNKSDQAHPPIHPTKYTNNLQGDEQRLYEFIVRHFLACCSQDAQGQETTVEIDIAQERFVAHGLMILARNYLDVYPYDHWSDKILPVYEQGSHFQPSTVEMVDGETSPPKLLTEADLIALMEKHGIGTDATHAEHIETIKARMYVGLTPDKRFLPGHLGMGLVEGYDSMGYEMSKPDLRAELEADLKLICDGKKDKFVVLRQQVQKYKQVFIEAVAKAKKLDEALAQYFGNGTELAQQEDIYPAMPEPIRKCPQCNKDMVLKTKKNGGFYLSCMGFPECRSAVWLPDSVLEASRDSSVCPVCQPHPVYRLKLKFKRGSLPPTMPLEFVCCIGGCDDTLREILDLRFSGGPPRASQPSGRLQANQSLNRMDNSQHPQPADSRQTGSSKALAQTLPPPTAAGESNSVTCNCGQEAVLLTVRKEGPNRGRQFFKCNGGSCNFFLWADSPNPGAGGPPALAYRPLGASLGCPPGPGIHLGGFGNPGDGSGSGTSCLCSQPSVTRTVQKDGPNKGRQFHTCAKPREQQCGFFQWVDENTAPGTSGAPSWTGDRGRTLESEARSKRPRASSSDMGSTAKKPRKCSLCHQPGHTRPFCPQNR
UniProt Q5BJF2, whole entry, looked up: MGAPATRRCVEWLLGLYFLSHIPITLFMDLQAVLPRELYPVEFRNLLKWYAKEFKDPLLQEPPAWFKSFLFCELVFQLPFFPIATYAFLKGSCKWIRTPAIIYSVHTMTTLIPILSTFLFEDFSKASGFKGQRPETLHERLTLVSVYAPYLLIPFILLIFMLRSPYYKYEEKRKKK

[1] = compound: CC(=O)c1cnc2ccc(-c3cc(Cl)c(O)c(Cl)c3)nc2c1N[C@H]1CC[C@H](CN(C)C)CC1
Summary of the method: as §1

ralimetinib = compound: CC(C)(C)Cn1c(N)nc2ccc(-c3[nH]c(C(C)(C)C)nc3-c3ccc(F)cc3)nc21 [ralimetinib]
Summary of the method: as §1

[2] = compound: CC(C)(O)CC(=O)NCCn1ccc2ncnc(Nc3ccc(Oc4cccc(C(F)(F)F)c4)c(Cl)c3)c21
Summary of the method: as §1

[3] = compound: CC(C)C1=C2N=C(C=C(N2N=C1)NCC3=CC=CC=C3)NCCCCCCN
Summary of the method: as §1

[4] = compound: CC1=C(C(CC(=O)N1)C2=CC=C(C=C2)C(F)(F)F)C(=O)NC3=C(C=C4C(=C3)C=NN4)F
Summary of the method: as §1

[5] = compound: CC1=C(C2=C(C=C1)C(=O)C3=CC=CC=C3N2CCCN)C
Summary of the method: as §1

[6] = compound: CC1=C(C=C(C=C1)NC(=O)C2=CC(=CC=C2)C(C)(C)C#N)NC3=CC4=C(C=C3)N=CN(C4=O)C
Summary of the method: as §1

[7] = compound: CC1=C(C=C(C=C1)NC(=O)C2=CC(=CC=C2)N(C)C)NC(=O)C3=CC=C(C=C3)O
Summary of the method: as §1

[8] = compound: CC1=CC=C(C=C1)SC2=C3C=C(SC3=CN=C2)C(=O)N
Summary of the method: as §1

vemurafenib = compound: CCCS(=O)(=O)Nc1ccc(F)c(C(=O)c2c[nH]c3ncc(-c4ccc(Cl)cc4)cc23)c1F [vemurafenib]
Summary of the method: as §1

[9] = compound: CCCS(=O)(=O)Nc1ccc(F)c(C(=O)c2c[nH]c3ncc(Cl)cc23)c1F
Summary of the method: as §1

barasertib = compound: CCN(CCCOc1ccc2c(Nc3cc(CC(=O)Nc4cccc(F)c4)[nH]n3)ncnc2c1)CCOP(=O)(O)O [barasertib]
Summary of the method: as §1

[10] = compound: CC[C@@H]1C(=O)N(C)c2cnc(Nc3ccc(C(=O)NC4CCN(C)CC4)cc3OC)nc2N1C1CCCC1
Summary of the method: as §1

volasertib = compound: CC[C@@H]1C(=O)N(C)c2cnc(Nc3ccc(C(=O)N[C@H]4CC[C@H](N5CCN(CC6CC6)CC5)CC4)cc3OC)nc2N1C(C)C [volasertib]
Summary of the method: as §1

[11] = compound: CCn1c(C(=O)N(C2CC2)C2CC2)cc2c3c(ncn3C)c(Nc3cc(C)n(C)n3)nc21
Summary of the method: as §1

[12] = compound: CCn1cc(-c2ccnc3[nH]c(-c4cccc(CN(C)C)c4)cc23)c(-c2ccc(NC(=O)N(C)C)cc2)n1
Summary of the method: as §1

[13] = compound: CN1CCC(CNc2ccc3ncc(-c4cccc(OC(F)(F)F)c4)n3n2)CC1
Summary of the method: as §1

saracatinib = compound: CN1CCN(CCOc2cc(OC3CCOCC3)c3c(Nc4c(Cl)ccc5c4OCO5)ncnc3c2)CC1 [saracatinib]
Summary of the method: as §1

sotrastaurin = compound: CN1CCN(c2nc(C3=C(c4c[nH]c5ccccc45)C(=O)NC3=O)c3ccccc3n2)CC1 [sotrastaurin]
Summary of the method: as §1

Measured: log2 fold change

TPM1 isoform 4 (UniProt P09493)
inactive: ibrutinib -0.019 | [1] 0.009 | ralimetinib 0.001 | [2] -0.011 | [3] -0.024 | [4] -0.011 | [5] 0.062 | [6] 0.011 | [7] -0.022 | [8] 0.001 | vemurafenib -0.049 | [9] -0.012 | barasertib -0.036 | [10] -0.018 | volasertib 0.033 | [11] 0.013 | [12] 0.106 | [13] -0.149 | saracatinib 0.031 | sotrastaurin -0.012

TNKS1BP1 (UniProt Q9C0C2)
inactive: ibrutinib 0 | [1] 0.009 | ralimetinib 0.012 | [2] -0.028 | [3] -0.025 | [4] -0.004 | [5] -0.022 | [6] -0.002 | [7] 0.012 | [8] -0.032 | vemurafenib 0.047 | [9] 0.01 | barasertib -0.05 | [10] 0.089 | volasertib 0.012 | [11] 0 | [12] 0.002 | [13] 0.019 | saracatinib 0.016 | sotrastaurin 0.007

TRABD (UniProt Q9H4I3)
inactive: ibrutinib -0.02 | [1] 0.008 | ralimetinib 0.006 | [2] 0.019 | [3] 0.017 | [4] -0.014 | [5] -0.006 | [6] 0.046 | [7] -0.028 | [8] -0.06 | vemurafenib 0.144 | [9] -0.023 | barasertib -0.031 | [10] 0.085 | volasertib 0.034 | [11] -0.055 | [12] -0.071 | [13] 0.08 | saracatinib -0.043 | sotrastaurin -0.005

TMX2 (UniProt Q9Y320)
inactive: ibrutinib 0.022 | [1] 0.014 | ralimetinib 0 | [2] -0.021 | [3] 0.012 | [4] -0.031 | [5] 0.02 | [6] 0.108 | [7] -0.015 | [8] -0.004 | vemurafenib -0.027 | [9] 0.021 | barasertib -0.021 | [10] -0.034 | volasertib 0.002 | [11] -0.002 | [12] 0.013 | [13] 0.007 | saracatinib -0.024 | sotrastaurin -0.079

TPX2 (UniProt Q9ULW0)
inactive: ibrutinib 0.024 | [1] -0.01 | ralimetinib 0.003 | [2] -0.006 | [3] 0.036 | [4] -0.005 | [5] -0.008 | [6] 0.062 | [7] 0.001 | [8] -0.01 | vemurafenib -0.006 | [9] -0.013 | barasertib -0.036 | [10] 0.093 | volasertib 0.012 | [11] -0.035 | [12] 0.04 | [13] -0.007 | saracatinib 0.03 | sotrastaurin -0.016

TOM1L1 (UniProt O75674)
inactive: ibrutinib -0.006 | [1] -0.015 | ralimetinib -0.003 | [2] -0.051 | [3] 0.025 | [4] 0.002 | [5] 0.052 | [6] 0.004 | [7] 0.004 | [8] -0.03 | vemurafenib -0.026 | [9] 0.015 | barasertib 0.014 | [10] 0.073 | volasertib 0.03 | [11] -0.013 | [12] 0.017 | [13] 0.023 | saracatinib -0.03 | sotrastaurin 0

TNFAIP2 (UniProt Q03169)
inactive: ibrutinib 0.011 | [1] -0.023 | ralimetinib -0.187 | [2] -0.264 | [3] -0.073 | [4] -0.063 | [5] -0.136 | [6] 0.092 | [7] -0.066 | [8] -0.043 | vemurafenib 0.093 | [9] 0.009 | barasertib 0.071 | [10] 0.257 | volasertib 0.035 | [11] -0.221 | [12] -0.222 | [13] 0.047 | saracatinib -0.018 | sotrastaurin 0.002

TPM4 (UniProt P67936)
inactive: ibrutinib -0.019 | [1] -0.021 | ralimetinib 0.003 | [2] -0.023 | [3] -0.023 | [4] -0.038 | [5] 0.012 | [6] 0.01 | [7] 0.013 | [8] 0.006 | vemurafenib -0.025 | [9] 0.009 | barasertib 0.047 | [10] 0.125 | volasertib 0.055 | [11] 0.018 | [12] 0.037 | [13] -0.007 | saracatinib 0.002 | sotrastaurin 0.013

TOR1AIP1 isoform 3 (UniProt Q5JTV8)
inactive: ibrutinib -0.008 | [1] 0.019 | ralimetinib -0.021 | [2] -0.038 | [3] -0.007 | [4] 0.031 | [5] 0.008 | [6] -0.003 | [7] 0.006 | [8] -0.015 | vemurafenib 0.013 | [9] 0 | barasertib 0.007 | [10] 0.049 | volasertib 0.026 | [11] -0.016 | [12] -0.087 | [13] 0.029 | saracatinib 0.026 | sotrastaurin -0.017

TOPBP1 (UniProt Q92547)
inactive: ibrutinib 0.012 | [1] 0.003 | ralimetinib 0.011 | [2] 0.011 | [3] 0.006 | [4] -0.02 | [5] -0.01 | [6] -0.035 | [7] 0.041 | [8] 0.055 | vemurafenib 0.024 | [9] -0.08 | barasertib 0.018 | [10] 0.012 | volasertib -0.079 | [11] -0.029 | [13] -0.071 | saracatinib -0.003 | sotrastaurin 0.02
active: [12] 0.305

TOP3A (UniProt Q13472)
inactive: ibrutinib -0.009 | [1] -0.194 | ralimetinib -0.133 | [2] 0.039 | [3] -0.044 | [4] 0.083 | [5] -0.029 | [6] -0.019 | [7] 0.078 | [8] 0.011 | vemurafenib 0.02 | [9] -0.016 | barasertib 0.055 | [10] 0.164 | volasertib -0.083 | [11] 0.06 | [12] -0.007 | [13] 0.086 | saracatinib -0.051 | sotrastaurin 0.069

TMEM97 (UniProt Q5BJF2)
active: [12] -0.327
inactive: ibrutinib 0.01 | [1] 0.012 | ralimetinib 0.004 | [2] -0.056 | [3] -0.034 | [4] -0.025 | [5] -0.032 | [6] 0.003 | [7] 0.042 | [8] -0.017 | vemurafenib 0.076 | [9] -0.027 | barasertib 0.037 | [10] 0.028 | volasertib 0.099 | [11] -0.048 | [13] 0.173 | saracatinib 0.002 | sotrastaurin -0.08

TPP2 (UniProt P29144)
inactive: ibrutinib -0.018 | [1] -0.016 | ralimetinib -0.002 | [2] 0.014 | [3] -0.012 | [4] -0.013 | [5] 0.003 | [6] 0.008 | [7] 0.012 | [8] 0.002 | vemurafenib -0.015 | [9] 0.01 | barasertib -0.024 | [10] -0.016 | volasertib -0.023 | [11] 0.009 | [12] 0.025 | [13] -0.012 | saracatinib -0.016 | sotrastaurin -0.009

TMEM62 (UniProt Q0P6H9)
inactive: ibrutinib 0.029 | [1] 0.065 | ralimetinib 0.03 | [2] -0.042 | [3] -0.005 | [4] 0.012 | [5] 0.016 | [6] -0.01 | [7] 0.006 | [8] 0.062 | vemurafenib 0.018 | [9] 0.025 | barasertib 0.058 | [10] -0.01 | volasertib 0.023 | [11] -0.072 | [12] -0.083 | [13] 0.21 | saracatinib 0.076 | sotrastaurin 0.012

TNPO1 (UniProt Q92973)
inactive: ibrutinib -0.005 | [1] 0.012 | ralimetinib -0.007 | [2] 0.008 | [3] 0.011 | [4] 0.003 | [5] 0.034 | [6] 0.006 | [7] 0.001 | [8] 0.007 | vemurafenib -0.012 | [9] 0 | barasertib -0.025 | [10] -0.008 | volasertib 0.017 | [11] 0.008 | [12] 0.078 | [13] -0.018 | saracatinib 0.014 | sotrastaurin 0.029

Source: the supplement of paper PMC10849652
